PubChem BioAssay AID652243, Drosophila RNAi Screening Center, 2013

Assay: 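Fly regulators of androgen-dependent reporter output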 (primary screen)
Cell system: Drosophila S2R+ cells
Reagent: long dsRNA against Drosophila genes
Time to read-out: 72 h (48 h, then 24 h hormone)
Challenge: synthetic androgen R1881 at 10 nM for 24 h
Read-out: 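Per-well raw luminescence of the androgen-driven firefly reporter and of the Renilla control, two replicates each, without normalisation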
Scale: firefly reporter light: higher = more light from androgen-responsive reporter; Renilla control light: higher = more constitutive control signal (cell number, transfection)
Active means: 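Across duplicate plates, a knock-down whose log firefly/Renilla ratio shifted a set fold down or up from the GFP/LacZ control mean was a hit; the downward cut appears as both 1.5 and 3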
Calls: active = hit: reporter lowered or raised; inactive = no hit
In all, the deposit lists about 24,000 reagents; below is an unselected part of those with a known target gene and a result. Of all reagents, 246 (1%) were called active. 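Plates not normalised; calls are printed but the firefly/Renilla ratio behind them is not deposited; fold cut for lowering reported inconsistently.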 The raw values are shown without normalisation. A number with no mark means an inactive call. Names joined by + are all predicted targets of the reagent. The record does not give: the amount of reagent.

no.	gene knocked down	DRSC id	firefly reporter light, replicate 1	firefly reporter light, replicate 2	Renilla control light, replicate 1	Renilla control light, replicate 2
1	aqrs	DRSC14724	1.91e5	2.07e5	1.90e6	2.85e6
2	ssp	DRSC10252	6.33e5	4.40e5	1.25e6	9.44e5
3	Not3	DRSC04908	7.24e5	7.04e5	1.31e6	1.65e6
4	Not3	DRSC27324	3.83e5	2.68e5	6.09e5	5.86e5
5	Der-2	DRSC15021	1.72e5	1.45e5	2.26e6	1.90e6
6	Atg7	DRSC05741	1.86e5	1.05e5	5.86e5	2.27e5
7	Atg7	DRSC06937	1.20e5	1.17e5	1.61e6	1.36e6
8	Nup93-1	DRSC19344	32334	40278	1.92e5	2.47e5
9	Reg-2	DRSC08690	8.66e5	1.15e6	9.81e5	1.21e6
10	Reg-2	DRSC26888	5.47e5	7.95e5	8.91e5	8.34e5
11	CG17186	DRSC15180	3.58e5	2.06e5	1.90e6	1.89e6
12	CG17186	DRSC27612	1.64e5	1.67e5	2.73e5	3.00e5
13	Cpes	DRSC04475	4.84e5	7.35e5	1.19e6	1.39e6
14	Cpes	DRSC27503	1.82e5	1.98e5	4.94e5	7.43e5
15	eIF3f2	DRSC04903	4.32e5	3.27e5	2.65e6	1.91e6
16	CG32081	DRSC09861	2.11e5	2.13e5	1.83e6	1.71e6
17	CG8414	DRSC07168	53847	42989	6.54e5	6.54e5
18	Uhg3	DRSC22963	9.43e5	1.02e6	2.76e6	1.80e6
19	ck	DRSC03509	1.03e6	7.73e5	1.49e6	1.35e6
20	CG32271	DRSC08198	61626	80462	9.39e5	9.34e5
21	CG32271	DRSC27093	3.35e5	2.72e5	6.97e5	6.04e5
22	Gr57a	DRSC06401	87690	1.08e5	1.30e6	1.31e6
23	Ance-5	DRSC04055	7.64e5	1.41e6	8.81e5	1.65e6
24	Ance-5	DRSC27189	3.17e5	3.19e5	5.32e5	5.41e5
25	CG3224	DRSC18295	2.26e5	2.99e5	2.57e6	2.67e6
26	CG32024	DRSC21883	7.13e5	6.44e5	1.91e6	1.34e6
27	CG6271	DRSC16006	1.10e5	90161	6.63e5	6.27e5
28	CG6271	DRSC25865	3.26e5	4.11e5	9.35e5	5.57e5
29	CG15594	DRSC12280	61445	94232	1.75e6	1.92e6
30	CG15044	DRSC19620	5.50e5	6.02e5	4.72e6	4.49e6
31	CG15044	DRSC21385	6.20e5	6.16e5	2.43e6	2.04e6
32	CG15044	DRSC28226	3.97e5	7.79e5	1.33e6	2.19e6
33	St2	DRSC15142	1.02e5	1.37e5	2.13e6	2.12e6
34	St2	DRSC22624	6.35e5	6.00e5	1.86e6	1.26e6
35	CG14120	DRSC10124	2.07e5	2.36e5	2.21e6	1.97e6
36	CG14120	DRSC27955	5.42e5	3.61e5	3.06e6	1.62e6
37	CG3808	DRSC10377	1.28e5	2.50e5	9.08e5	2.28e6
38	s-cup	DRSC06277	1.84e5	1.29e5	1.31e6	1.06e6
39	s-cup	DRSC06278	4.09e5	1.78e5	1.38e6	1.46e6
40	s-cup	DRSC24270	6.32e5	9.02e5	9.59e5	7.63e5
41	CG14564	DRSC11725	2.13e5	2.03e5	1.96e6	2.39e6
42	CG14564	DRSC22388	4.95e5	8.45e5	1.28e6	1.51e6
43	l(1)G0020	DRSC18198	3.11e5	3.52e5	3.91e6	2.84e6
44	CG33234	DRSC37784	9.88e5	7.36e5	2.14e6	1.33e6
45	Nmdar1	DRSC12071	2.42e5	2.35e5	4.94e5	4.24e5
46	Nmdar1	DRSC12356	1.40e5	1.39e5	3.18e6	2.51e6
47	Nmdar1	DRSC24657	5.38e5	3.73e5	4.29e5	4.96e5
48	esn	DRSC05039	1.91e5	2.14e5	3.18e5	2.49e5
49	esn	DRSC06181	1.70e5	1.81e5	1.27e6	1.28e6
50	esn	DRSC07612	2.15e5	2.21e5	1.27e6	1.46e6
51	esn	DRSC27647	2.64e5	2.34e5	6.06e5	7.55e5
52	mRpL12	DRSC10467	9.34e5	1.08e6	8.98e5	1.40e6
53	mRpL12	DRSC28525	3.06e5	4.65e5	4.91e5	1.29e6
54	mod(mdg4) + pre-mod(mdg4)-Z + pre-mod(mdg4)-T	DRSC13477	1.01e5	56107	39866	1.33e5
55	mod(mdg4) + pre-mod(mdg4)-Z + pre-mod(mdg4)-T	DRSC17001	2.84e5	2.67e5	3.05e6	3.05e6
56	CG13227	DRSC06347	2.57e5	3.49e5	7.97e5	1.88e6
57	CG13227	DRSC27529	2.16e5	1.59e5	6.26e5	8.91e5
58	CG17272	DRSC15211	2.37e5	1.96e5	2.41e6	3.02e6

A few values from the entries so far.
Value of Reg-2 [DRSC26888] under “firefly reporter light, replicate 2”: 7.95e5
Result of CG15044 [DRSC28226] under “firefly reporter light, replicate 1”: 3.97e5
For “firefly reporter light, replicate 1”, Ance-5 [DRSC27189] shows 3.17e5
Under “firefly reporter light, replicate 2”, CG17186 [DRSC27612] reads 1.67e5
Value of Cpes [DRSC04475] in “firefly reporter light, replicate 2”: 7.35e5
Nmdar1 [DRSC24657], Renilla control light, replicate 2 → 4.96e5
